# Data as given in the supplement of paper PMC11438910.
# The other results are listed elsewhere or left out. Most of these values are background signal.
# B1: 3S41.2 (protein)
# chain 1: EVQLVESGGGLVQPGGSLRLSCATSGFTFRNYWMYWFRQAPGKGLDWVSSISDSSSNTFYSDSVKGRFTISRDNAKNTLYLQMNSLRAEDTAVYYCARRPIAAATGVYWYFDLWGPGTPITVSS
# chain 2: QAALTQPPSMSGSPGQSVTISCTGTSSDIGGYNRVSWYQQYPGKAPKLMIYEVSKRPSGVSDRFSGSKSGNTAALTISGLQAADEADYYCSSYAGSYTFVLFGGGTRLTVL
# Legend:
# Experiment in all cases: fluorescence intensity of antibody binding to polysaccharide-coupled beads; higher = stronger binding
# [1] = target: pneumococcal polysaccharide Pn18B
# [2] = target: pneumococcal polysaccharide Pn18C
# [3] = target: pneumococcal polysaccharide Pn18F
# [4] = target: pneumococcal polysaccharide Pn19A
# [5] = target: pneumococcal polysaccharide Pn19B
# [6] = target: pneumococcal polysaccharide Pn19C
# [7] = target: pneumococcal polysaccharide Pn19F
# [8] = target: pneumococcal polysaccharide Pn2
# [9] = target: pneumococcal polysaccharide Pn20A
# [10] = target: pneumococcal polysaccharide Pn20B
# [11] = target: pneumococcal polysaccharide Pn21
# [12] = target: pneumococcal polysaccharide Pn22A
# [13] = antibody concentration 2.8593 ng/mL
# [14] = antibody concentration 15.2894 ng/mL
# [15] = antibody concentration 81.7561 ng/mL
# [16] = antibody concentration 437.17 ng/mL
# [17] = antibody concentration 2337.65 ng/mL
# [18] = antibody concentration 12500 ng/mL
# [19] = antibody concentration 0.1 ng/mL
# [20] = antibody concentration 0.534724 ng/mL
binder,measurement,setting,value
B1,fluorescence intensity,[1]; [13],30 MFI
same,fluorescence intensity,[1]; [14],30.2 MFI
same,fluorescence intensity,[1]; [15],30 MFI
same,fluorescence intensity,[1]; [16],32.5 MFI
same,fluorescence intensity,[1]; [17],37 MFI
same,fluorescence intensity,[1]; [18],53.5 MFI
same,fluorescence intensity,[2]; [19],20 MFI
same,fluorescence intensity,[2]; [20],18 MFI
same,fluorescence intensity,[2]; [13],17.5 MFI
same,fluorescence intensity,[2]; [14],19.5 MFI
same,fluorescence intensity,[2]; [15],19 MFI
same,fluorescence intensity,[2]; [16],21.2 MFI
same,fluorescence intensity,[2]; [17],27.2 MFI
same,fluorescence intensity,[2]; [18],46.2 MFI
same,fluorescence intensity,[3]; [19],24 MFI
same,fluorescence intensity,[3]; [20],22 MFI
same,fluorescence intensity,[3]; [13],22 MFI
same,fluorescence intensity,[3]; [14],22.8 MFI
same,fluorescence intensity,[3]; [15],23 MFI
same,fluorescence intensity,[3]; [16],25.5 MFI
same,fluorescence intensity,[3]; [17],31.5 MFI
same,fluorescence intensity,[3]; [18],49 MFI
same,fluorescence intensity,[4]; [19],19 MFI
same,fluorescence intensity,[4]; [20],19 MFI
same,fluorescence intensity,[4]; [13],19 MFI
same,fluorescence intensity,[4]; [14],18 MFI
same,fluorescence intensity,[4]; [15],19 MFI
same,fluorescence intensity,[4]; [16],20 MFI
same,fluorescence intensity,[4]; [17],25 MFI
same,fluorescence intensity,[4]; [18],40.5 MFI
same,fluorescence intensity,[5]; [19],28 MFI
same,fluorescence intensity,[5]; [20],30.5 MFI
same,fluorescence intensity,[5]; [13],31 MFI
same,fluorescence intensity,[5]; [14],30 MFI
same,fluorescence intensity,[5]; [15],29.8 MFI
same,fluorescence intensity,[5]; [16],33.2 MFI
same,fluorescence intensity,[5]; [17],84.8 MFI
same,fluorescence intensity,[5]; [18],506 MFI
same,fluorescence intensity,[6]; [19],25.5 MFI
same,fluorescence intensity,[6]; [20],26.5 MFI
same,fluorescence intensity,[6]; [13],25.5 MFI
same,fluorescence intensity,[6]; [14],26 MFI
same,fluorescence intensity,[6]; [15],26.5 MFI
same,fluorescence intensity,[6]; [16],28.8 MFI
same,fluorescence intensity,[6]; [17],58.5 MFI
same,fluorescence intensity,[6]; [18],302 MFI
same,fluorescence intensity,[7]; [19],24.5 MFI
same,fluorescence intensity,[7]; [20],25.5 MFI
same,fluorescence intensity,[7]; [13],25 MFI
same,fluorescence intensity,[7]; [14],25.5 MFI
same,fluorescence intensity,[7]; [15],27 MFI
same,fluorescence intensity,[7]; [16],28.5 MFI
same,fluorescence intensity,[7]; [17],38.5 MFI
same,fluorescence intensity,[7]; [18],59.5 MFI
same,fluorescence intensity,[8]; [19],20 MFI
same,fluorescence intensity,[8]; [20],20.8 MFI
same,fluorescence intensity,[8]; [13],19.5 MFI
same,fluorescence intensity,[8]; [14],19 MFI
same,fluorescence intensity,[8]; [15],21 MFI
same,fluorescence intensity,[8]; [16],21 MFI
same,fluorescence intensity,[8]; [17],25.5 MFI
same,fluorescence intensity,[8]; [18],36 MFI
same,fluorescence intensity,[9]; [19],23 MFI
same,fluorescence intensity,[9]; [20],22.2 MFI
same,fluorescence intensity,[9]; [13],22 MFI
same,fluorescence intensity,[9]; [14],24 MFI
same,fluorescence intensity,[9]; [15],23 MFI
same,fluorescence intensity,[9]; [16],26 MFI
same,fluorescence intensity,[9]; [17],55.5 MFI
same,fluorescence intensity,[9]; [18],324 MFI
same,fluorescence intensity,[10]; [19],25 MFI
same,fluorescence intensity,[10]; [20],23 MFI
same,fluorescence intensity,[10]; [13],24.8 MFI
same,fluorescence intensity,[10]; [14],23 MFI
same,fluorescence intensity,[10]; [15],24.5 MFI
same,fluorescence intensity,[10]; [16],24 MFI
same,fluorescence intensity,[10]; [17],30 MFI
same,fluorescence intensity,[10]; [18],64.5 MFI
same,fluorescence intensity,[11]; [19],18.5 MFI
same,fluorescence intensity,[11]; [20],19.2 MFI
same,fluorescence intensity,[11]; [13],19.8 MFI
same,fluorescence intensity,[11]; [14],19.2 MFI
same,fluorescence intensity,[11]; [15],19.5 MFI
same,fluorescence intensity,[11]; [16],18.8 MFI
same,fluorescence intensity,[11]; [17],23 MFI
same,fluorescence intensity,[11]; [18],29.5 MFI
same,fluorescence intensity,[12]; [19],21.5 MFI
same,fluorescence intensity,[12]; [20],20 MFI
same,fluorescence intensity,[12]; [13],21.5 MFI
same,fluorescence intensity,[12]; [14],19.5 MFI

# For convenience, part of the list above:
binder,measurement,setting,value
B1,fluorescence intensity,[3]; [19],24 MFI
same,fluorescence intensity,[3]; [20],22 MFI
same,fluorescence intensity,[3]; [13],22 MFI
